Our source for the binding values is patent publication US20090031445A1.

These are yes or no findings as the source states them, for the method shown. In cells and extracts the contact can be indirect. Some binding calls cover weakened binding; strength is not graded here. Where a sequence is shown, tags or fusion partners need not be part of it.

For assay [1], the target named is T1, BAD03576-HA fusion protein (OsYchF1 with in-frame HA tag, in vitro translated) (Oryza sativa (rice)) (UniProt Q6Z1J6).
T1 sequence (chain, biotinylated lysines from Transcend biotin-lysyl-tRNA in vitro translation): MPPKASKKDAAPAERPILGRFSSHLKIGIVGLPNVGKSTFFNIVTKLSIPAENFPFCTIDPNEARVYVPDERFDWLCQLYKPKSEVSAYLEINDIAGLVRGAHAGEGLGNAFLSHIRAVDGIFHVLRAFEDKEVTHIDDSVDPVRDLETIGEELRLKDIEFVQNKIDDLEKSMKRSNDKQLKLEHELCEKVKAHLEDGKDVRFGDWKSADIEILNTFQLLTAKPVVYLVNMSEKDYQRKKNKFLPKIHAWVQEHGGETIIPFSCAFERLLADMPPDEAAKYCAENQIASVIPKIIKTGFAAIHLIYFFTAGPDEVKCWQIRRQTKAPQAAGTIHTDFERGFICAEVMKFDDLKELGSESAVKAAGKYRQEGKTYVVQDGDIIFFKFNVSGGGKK
Description: co-immunoprecipitation with anti-HA antibody, Western blot with anti-OsGAP1. Background: Immunoblotting shows a protein as a band on a membrane.

The target in assay [2] is T1, BAD03576-HA fusion protein (OsYchF1 with in-frame HA tag, in vitro translated) (Oryza sativa (rice)). The experiment in a line: co-immunoprecipitation with anti-HA antibody from rice extract mixed with in vitro translated BAD03576-HA, Western blot with anti-OsGAP1.

B1: OsGAP1 (rice GTPase activating protein-1) (protein)
chain: MLGHLVGLVKVRVVRGVNLAVRDLRSSDPYVIVRMGKQKLKTRVIKKTTNPEWNDELTLSIEDPAVPVRLEVYDKDTFIDDAMGNAELDIRPLVEVVKMKIEGVADNTVVKKVVPNRQNCLAEESTIYISEGKVKQDVVLRLRDVECGEIELQLQWVDIPGSKGV
For B1, the binding entry in assay [1] and in assay [2] was “binds” in each case.
